Reference: patent US8273855

Molecular target: T1, Caspr (native, mouse brain) (mouse) (UniProt O54991)
T1 sequence (looked up): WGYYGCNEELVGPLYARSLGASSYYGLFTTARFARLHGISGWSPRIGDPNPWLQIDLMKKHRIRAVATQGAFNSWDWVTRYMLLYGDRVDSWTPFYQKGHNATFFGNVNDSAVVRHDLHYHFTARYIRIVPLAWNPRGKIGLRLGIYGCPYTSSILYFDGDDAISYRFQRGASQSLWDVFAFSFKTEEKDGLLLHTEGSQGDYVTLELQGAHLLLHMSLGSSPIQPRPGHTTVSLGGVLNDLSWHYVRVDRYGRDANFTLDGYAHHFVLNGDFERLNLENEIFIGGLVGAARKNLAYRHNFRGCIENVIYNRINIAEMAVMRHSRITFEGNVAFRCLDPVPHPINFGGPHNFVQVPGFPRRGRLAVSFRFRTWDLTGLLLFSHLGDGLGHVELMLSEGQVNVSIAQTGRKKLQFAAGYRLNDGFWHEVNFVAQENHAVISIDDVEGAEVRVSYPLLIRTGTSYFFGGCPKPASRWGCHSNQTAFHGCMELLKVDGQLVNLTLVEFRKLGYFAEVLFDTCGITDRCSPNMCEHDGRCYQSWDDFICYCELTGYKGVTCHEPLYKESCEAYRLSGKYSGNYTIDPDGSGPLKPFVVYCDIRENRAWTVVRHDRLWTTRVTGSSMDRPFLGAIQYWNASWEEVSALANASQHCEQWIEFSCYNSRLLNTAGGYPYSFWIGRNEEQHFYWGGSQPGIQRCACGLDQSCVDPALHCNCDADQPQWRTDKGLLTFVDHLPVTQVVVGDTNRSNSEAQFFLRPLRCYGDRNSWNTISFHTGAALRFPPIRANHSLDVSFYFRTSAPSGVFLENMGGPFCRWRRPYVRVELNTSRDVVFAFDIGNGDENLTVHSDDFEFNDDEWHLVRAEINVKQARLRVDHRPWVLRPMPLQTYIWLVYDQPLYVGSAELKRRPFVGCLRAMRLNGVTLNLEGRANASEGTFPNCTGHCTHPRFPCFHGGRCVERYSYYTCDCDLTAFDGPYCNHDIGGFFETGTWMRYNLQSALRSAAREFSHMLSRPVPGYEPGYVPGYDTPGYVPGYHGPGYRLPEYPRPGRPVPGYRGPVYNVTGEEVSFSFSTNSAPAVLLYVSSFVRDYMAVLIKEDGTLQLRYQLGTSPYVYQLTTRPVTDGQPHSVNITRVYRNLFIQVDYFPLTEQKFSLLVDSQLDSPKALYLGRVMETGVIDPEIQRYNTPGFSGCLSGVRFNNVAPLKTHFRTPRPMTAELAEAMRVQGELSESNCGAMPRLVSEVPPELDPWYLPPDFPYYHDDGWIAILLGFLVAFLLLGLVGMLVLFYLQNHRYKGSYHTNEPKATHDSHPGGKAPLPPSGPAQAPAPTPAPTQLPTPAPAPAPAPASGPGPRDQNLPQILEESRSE
Experiment: GST pull-down from adult mouse brain membrane extracts

binding: binds
Substance: GST-Nogo-66

No constants are given. Whether binding was seen depends on the method and setting. Binding seen in cells or lysates may run through a third protein. Binding can be weak; no strength is given.
